These are yes or no findings as the source states them, for the method shown. In cells and extracts the contact can be indirect. Some results given as binding are weak or reduced against the parent protein; the word gives no strength. Blank lines part the entries; values can stand above or below the substance they belong to.
Assays:
[1] = target: ER81, endogenous in mouse olfactory bulb (mouse (endogenous in olfactory bulb tissue)) (UniProt P41164); assay: co-IP; endogenous proteins, adult mouse OB tissue lysate (20 mM Tris pH 8.0, 137 mM NaCl, 1% NP-40, 2 mM EDTA); forward: IP with ZIC3 antibody, blot ER81; reverse: IP with ER81 antibody, blot ZIC3; protein-A sepharose
FLAG-ER81 (mouse) = FLAG-ER81 (mouse) (UniProt P41164); assay: co-IP; HEK-293T cells overexpressing FLAG-ER81 and GST-tagged ZIC3 constructs; immunoprecipitation with FLAG antibody, immunoblot with GST antibody
[2] = target: ZIC3, endogenous in mouse olfactory bulb (mouse (endogenous in olfactory bulb tissue)) (UniProt Q62521); assay: co-IP; endogenous proteins, adult mouse OB tissue lysate (20 mM Tris pH 8.0, 137 mM NaCl, 1% NP-40, 2 mM EDTA); forward: IP with ZIC3 antibody, blot ER81; reverse: IP with ER81 antibody, blot ZIC3; protein-A sepharose

By UniProt entry, the sequences of proteins in these tests, tags left out.
UniProt P41164: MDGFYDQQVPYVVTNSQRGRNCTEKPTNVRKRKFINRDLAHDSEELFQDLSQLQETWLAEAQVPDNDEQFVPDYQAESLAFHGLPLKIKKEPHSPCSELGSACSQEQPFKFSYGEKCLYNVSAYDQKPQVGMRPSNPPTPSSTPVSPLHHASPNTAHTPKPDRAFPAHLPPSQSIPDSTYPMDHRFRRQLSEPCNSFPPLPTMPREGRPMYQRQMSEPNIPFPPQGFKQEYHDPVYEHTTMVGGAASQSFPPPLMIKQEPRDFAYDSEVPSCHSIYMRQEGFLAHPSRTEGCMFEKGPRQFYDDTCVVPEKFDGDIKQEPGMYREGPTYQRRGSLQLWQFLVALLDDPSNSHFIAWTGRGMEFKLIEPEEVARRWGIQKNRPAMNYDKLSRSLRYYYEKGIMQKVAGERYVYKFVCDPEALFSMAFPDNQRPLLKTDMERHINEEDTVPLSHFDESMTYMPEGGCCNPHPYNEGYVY
UniProt Q62521: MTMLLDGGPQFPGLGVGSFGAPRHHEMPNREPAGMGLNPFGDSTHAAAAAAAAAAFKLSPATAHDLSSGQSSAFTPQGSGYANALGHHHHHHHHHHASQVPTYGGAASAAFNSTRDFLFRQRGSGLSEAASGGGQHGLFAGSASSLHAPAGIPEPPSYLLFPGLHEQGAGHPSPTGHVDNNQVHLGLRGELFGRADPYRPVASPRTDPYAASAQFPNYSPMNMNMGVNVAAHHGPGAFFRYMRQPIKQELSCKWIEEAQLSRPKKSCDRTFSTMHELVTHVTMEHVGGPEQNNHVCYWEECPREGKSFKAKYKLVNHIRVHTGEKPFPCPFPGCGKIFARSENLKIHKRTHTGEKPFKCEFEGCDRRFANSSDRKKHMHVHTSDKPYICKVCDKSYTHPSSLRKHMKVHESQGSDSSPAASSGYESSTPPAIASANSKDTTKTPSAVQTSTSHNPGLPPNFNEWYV

binding [1]: binds
Substance: ZIC3, endogenous in mouse olfactory bulb (from UniProt Q62521 1-466)

binding (FLAG-ER81 (mouse)): binds
Substance: ZIC3-GST, full length (Zinc Finger transcription factor of the Cerebellum 3) (from UniProt Q62521 1-466)

binding [2]: binds
Substance: ER81, endogenous in mouse olfactory bulb (from UniProt P41164 1-477)
